Data published in PubChem BioAssay (EPA / NIEHS).
The source calls these results inconclusive, neither active nor inactive. How the source made its calls: active means hit-call score of the fitted dose curve at least 0.9, where 1 is the maximum; inconclusive means response in the unintended direction; inactive means score below 0.9.

By UniProt entry, the sequences of proteins in these tests, tags left out.
UniProt Q14994, whole entry: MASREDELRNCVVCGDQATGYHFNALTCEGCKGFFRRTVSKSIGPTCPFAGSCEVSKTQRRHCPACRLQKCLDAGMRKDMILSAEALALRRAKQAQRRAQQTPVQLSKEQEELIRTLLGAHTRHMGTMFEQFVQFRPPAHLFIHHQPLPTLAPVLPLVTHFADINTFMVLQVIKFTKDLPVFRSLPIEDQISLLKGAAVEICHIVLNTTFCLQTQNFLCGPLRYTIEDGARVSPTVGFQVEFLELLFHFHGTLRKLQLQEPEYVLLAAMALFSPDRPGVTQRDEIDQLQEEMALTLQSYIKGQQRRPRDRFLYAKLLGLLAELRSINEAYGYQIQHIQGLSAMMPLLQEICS
UniProt P43354, whole entry: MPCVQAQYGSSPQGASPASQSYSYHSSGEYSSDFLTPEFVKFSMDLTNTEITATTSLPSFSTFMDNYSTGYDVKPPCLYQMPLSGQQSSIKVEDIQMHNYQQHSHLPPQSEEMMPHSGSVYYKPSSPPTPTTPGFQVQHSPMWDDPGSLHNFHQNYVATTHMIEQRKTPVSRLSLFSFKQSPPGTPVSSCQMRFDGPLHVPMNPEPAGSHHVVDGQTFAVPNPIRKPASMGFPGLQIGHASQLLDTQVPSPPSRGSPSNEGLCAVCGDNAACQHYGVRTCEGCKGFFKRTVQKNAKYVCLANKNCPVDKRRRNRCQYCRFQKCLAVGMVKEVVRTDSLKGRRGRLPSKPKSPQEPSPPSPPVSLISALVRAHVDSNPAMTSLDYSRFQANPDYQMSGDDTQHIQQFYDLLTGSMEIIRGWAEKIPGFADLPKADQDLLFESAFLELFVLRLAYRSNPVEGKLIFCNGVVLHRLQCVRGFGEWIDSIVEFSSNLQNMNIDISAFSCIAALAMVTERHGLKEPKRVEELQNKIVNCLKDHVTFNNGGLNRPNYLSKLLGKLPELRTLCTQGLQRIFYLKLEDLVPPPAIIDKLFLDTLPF
UniProt Q92753, whole entry: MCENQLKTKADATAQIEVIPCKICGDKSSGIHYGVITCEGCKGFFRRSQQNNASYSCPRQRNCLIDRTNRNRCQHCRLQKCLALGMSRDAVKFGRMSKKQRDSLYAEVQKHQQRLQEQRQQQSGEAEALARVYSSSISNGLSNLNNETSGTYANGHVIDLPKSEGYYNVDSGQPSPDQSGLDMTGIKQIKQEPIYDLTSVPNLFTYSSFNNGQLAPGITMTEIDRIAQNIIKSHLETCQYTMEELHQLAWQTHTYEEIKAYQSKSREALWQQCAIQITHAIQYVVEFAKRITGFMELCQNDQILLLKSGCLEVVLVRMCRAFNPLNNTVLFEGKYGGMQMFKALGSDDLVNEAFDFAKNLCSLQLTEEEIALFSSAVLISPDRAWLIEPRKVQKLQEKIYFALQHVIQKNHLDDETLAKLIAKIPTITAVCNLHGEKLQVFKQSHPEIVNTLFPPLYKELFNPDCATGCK
UniProt P28702, whole entry: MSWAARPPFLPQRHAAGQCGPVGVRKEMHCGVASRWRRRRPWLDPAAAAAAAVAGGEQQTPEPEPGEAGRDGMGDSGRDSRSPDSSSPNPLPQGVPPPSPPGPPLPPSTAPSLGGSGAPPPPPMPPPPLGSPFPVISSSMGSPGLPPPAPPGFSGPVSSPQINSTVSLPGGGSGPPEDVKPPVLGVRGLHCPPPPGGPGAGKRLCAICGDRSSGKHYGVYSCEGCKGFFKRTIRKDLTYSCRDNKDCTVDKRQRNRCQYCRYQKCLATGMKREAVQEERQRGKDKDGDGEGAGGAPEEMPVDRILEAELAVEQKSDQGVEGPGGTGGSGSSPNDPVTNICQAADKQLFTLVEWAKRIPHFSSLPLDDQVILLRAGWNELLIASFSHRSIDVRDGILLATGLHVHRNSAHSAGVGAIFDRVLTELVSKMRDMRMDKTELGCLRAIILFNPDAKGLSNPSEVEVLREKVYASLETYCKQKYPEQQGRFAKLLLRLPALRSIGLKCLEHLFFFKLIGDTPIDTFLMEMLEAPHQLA
UniProt Q13131, whole entry: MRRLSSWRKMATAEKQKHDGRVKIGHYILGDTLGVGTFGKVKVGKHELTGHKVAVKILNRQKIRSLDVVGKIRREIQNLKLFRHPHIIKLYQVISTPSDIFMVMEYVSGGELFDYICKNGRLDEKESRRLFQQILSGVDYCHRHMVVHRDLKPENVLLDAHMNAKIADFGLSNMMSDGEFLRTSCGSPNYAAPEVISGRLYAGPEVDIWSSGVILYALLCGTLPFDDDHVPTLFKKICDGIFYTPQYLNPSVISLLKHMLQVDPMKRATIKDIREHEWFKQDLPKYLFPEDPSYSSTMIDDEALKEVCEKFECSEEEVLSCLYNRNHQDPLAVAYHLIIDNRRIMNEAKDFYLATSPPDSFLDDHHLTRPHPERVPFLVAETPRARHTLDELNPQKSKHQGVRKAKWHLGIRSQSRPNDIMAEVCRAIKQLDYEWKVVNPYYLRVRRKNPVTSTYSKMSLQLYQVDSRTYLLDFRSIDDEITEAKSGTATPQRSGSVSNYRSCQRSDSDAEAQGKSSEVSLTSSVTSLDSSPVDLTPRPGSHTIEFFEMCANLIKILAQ
UniProt Q9UBN7, whole entry: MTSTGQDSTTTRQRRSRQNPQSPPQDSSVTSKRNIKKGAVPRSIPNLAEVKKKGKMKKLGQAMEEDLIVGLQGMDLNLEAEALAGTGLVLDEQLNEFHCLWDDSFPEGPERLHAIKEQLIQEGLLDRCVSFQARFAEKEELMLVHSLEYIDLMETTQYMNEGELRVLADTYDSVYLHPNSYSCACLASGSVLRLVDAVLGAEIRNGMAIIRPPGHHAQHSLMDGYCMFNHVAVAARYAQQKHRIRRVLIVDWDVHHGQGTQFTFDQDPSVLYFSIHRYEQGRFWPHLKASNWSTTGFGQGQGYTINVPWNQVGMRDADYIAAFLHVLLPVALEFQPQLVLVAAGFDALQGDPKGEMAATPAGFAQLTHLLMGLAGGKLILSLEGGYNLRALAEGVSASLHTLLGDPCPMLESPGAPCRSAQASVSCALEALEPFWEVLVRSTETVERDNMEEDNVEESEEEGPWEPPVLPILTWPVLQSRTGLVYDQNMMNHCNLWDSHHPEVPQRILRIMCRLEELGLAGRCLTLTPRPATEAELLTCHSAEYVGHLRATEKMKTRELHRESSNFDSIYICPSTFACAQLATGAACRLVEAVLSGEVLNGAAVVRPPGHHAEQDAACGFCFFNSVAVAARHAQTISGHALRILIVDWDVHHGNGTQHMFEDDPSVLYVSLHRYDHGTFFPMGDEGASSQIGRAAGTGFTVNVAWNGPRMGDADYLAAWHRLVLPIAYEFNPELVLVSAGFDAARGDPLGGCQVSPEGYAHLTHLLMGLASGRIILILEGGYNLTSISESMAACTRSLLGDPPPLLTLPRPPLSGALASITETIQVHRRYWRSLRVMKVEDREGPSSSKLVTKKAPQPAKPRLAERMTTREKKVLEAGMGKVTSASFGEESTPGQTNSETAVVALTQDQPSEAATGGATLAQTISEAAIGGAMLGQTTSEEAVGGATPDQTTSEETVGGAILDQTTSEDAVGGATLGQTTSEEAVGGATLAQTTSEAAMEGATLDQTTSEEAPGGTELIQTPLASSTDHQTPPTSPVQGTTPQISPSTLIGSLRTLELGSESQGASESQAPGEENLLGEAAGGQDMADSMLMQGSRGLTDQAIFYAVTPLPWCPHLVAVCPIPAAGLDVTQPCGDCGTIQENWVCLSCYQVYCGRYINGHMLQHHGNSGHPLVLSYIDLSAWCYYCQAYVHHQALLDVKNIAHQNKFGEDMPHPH
UniProt P08581, whole entry: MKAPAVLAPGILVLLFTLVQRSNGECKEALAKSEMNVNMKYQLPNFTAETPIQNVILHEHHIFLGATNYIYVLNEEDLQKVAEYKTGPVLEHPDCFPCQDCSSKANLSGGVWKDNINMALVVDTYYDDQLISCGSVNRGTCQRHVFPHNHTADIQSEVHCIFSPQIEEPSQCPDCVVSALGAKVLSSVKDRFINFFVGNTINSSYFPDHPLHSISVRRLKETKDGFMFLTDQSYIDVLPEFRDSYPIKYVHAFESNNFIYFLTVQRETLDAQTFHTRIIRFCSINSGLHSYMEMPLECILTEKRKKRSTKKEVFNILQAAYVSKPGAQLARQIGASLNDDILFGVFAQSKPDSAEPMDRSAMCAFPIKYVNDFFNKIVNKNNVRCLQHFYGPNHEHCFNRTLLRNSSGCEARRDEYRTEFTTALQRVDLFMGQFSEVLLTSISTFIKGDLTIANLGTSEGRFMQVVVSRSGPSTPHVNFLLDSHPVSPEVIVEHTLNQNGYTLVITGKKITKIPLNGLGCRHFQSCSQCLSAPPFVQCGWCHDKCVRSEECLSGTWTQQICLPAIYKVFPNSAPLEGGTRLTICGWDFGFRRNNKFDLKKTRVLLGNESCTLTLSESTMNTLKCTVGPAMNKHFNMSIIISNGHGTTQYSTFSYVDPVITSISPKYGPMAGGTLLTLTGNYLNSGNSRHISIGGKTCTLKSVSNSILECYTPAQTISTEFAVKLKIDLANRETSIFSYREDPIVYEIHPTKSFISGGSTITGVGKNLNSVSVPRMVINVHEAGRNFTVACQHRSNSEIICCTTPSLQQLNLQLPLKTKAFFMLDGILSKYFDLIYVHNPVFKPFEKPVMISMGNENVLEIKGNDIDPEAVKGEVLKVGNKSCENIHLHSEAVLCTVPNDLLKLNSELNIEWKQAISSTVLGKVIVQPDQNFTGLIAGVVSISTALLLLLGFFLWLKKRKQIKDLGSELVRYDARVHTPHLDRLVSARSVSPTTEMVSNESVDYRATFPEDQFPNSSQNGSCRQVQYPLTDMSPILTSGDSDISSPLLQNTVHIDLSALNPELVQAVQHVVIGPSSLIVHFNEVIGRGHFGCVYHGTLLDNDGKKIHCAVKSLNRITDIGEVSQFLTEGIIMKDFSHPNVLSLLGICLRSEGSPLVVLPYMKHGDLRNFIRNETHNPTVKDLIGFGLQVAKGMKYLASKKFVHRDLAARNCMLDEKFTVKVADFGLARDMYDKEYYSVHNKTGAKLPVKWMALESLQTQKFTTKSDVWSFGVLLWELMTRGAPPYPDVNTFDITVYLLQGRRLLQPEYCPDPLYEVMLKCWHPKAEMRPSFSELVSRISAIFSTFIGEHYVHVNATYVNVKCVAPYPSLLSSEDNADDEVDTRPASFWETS
UniProt Q96EB6, whole entry: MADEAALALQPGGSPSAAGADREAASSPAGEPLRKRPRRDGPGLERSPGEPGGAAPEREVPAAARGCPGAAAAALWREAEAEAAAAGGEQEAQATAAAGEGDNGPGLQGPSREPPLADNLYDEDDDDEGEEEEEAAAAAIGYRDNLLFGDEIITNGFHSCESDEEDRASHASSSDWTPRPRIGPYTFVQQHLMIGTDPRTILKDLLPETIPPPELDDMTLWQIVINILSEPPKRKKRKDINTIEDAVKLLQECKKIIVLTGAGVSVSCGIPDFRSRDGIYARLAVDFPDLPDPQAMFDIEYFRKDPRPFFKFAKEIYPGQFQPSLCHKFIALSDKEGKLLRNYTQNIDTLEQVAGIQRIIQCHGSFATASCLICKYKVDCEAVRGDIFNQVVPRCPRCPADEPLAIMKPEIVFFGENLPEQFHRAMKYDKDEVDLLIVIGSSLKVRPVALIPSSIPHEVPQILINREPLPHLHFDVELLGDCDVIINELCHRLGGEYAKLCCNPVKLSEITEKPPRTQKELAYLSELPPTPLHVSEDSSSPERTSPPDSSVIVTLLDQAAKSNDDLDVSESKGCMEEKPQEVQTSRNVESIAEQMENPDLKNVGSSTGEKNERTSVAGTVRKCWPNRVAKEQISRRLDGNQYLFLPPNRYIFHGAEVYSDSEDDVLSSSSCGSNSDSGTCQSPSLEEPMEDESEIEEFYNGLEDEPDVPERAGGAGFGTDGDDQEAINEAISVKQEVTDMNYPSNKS
UniProt P10827, whole entry: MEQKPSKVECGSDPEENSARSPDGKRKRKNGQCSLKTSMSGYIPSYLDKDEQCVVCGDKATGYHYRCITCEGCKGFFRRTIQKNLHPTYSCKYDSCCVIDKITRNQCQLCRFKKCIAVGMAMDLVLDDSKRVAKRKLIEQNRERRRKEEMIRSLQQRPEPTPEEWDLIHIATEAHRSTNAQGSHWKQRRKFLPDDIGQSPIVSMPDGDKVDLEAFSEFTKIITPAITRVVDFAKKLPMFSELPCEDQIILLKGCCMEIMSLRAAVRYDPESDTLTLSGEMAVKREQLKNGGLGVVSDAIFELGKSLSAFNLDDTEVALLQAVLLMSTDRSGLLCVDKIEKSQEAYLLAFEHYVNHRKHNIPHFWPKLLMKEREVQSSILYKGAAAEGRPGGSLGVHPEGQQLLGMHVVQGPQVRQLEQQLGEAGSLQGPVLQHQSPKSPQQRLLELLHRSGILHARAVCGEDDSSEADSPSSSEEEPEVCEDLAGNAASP

Tests used:
[1] = target: Nuclear receptor subfamily 1 group I member 3 (Homo sapiens) (UniProt Q14994); assay: ATG_CAR_TRANS: Attagene TRANS-FACTORIAL HepG2 Assay for human Constitutive Androstane Receptor (CAR) (AID 2282969); conditions: HepG2 Attagene TRANS-FACTORIAL CAR reporter;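 further: activators raise reporter mRNA above DMSO so AC50 marks induction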
How it was run: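 Signal is reporter mRNA induction relative to DMSO, measured 24 h after dosing by RT-PCR with fluorescent primer extension and capillary electrophoresis. Human HepG2 liver cells carried transiently transfected chimeric NR-Gal4/GAL4-UAS reporter constructs.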

[2] = ATG_M_19_TRANS: Attagene TRANS-FACTORIAL HepG2 Assay for M19 Transcription Factor (Internal Marker) (AID 2282974); conditions: HepG2 Attagene TRANS-FACTORIAL M19 internal marker reporter
How it was run: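 Background-control readout: after 24 h chemical exposure of transfected HepG2 carrying GAL4-driven reporter units, RNA was reverse-transcribed, amplified, fluorescently labeled and sized by capillary electrophoresis; gain-of-signal fit against DMSO.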

[3] = ATG_GAL4_TRANS: Attagene TRANS-FACTORIAL HepG2 Assay for GAL4 (Internal Marker) (AID 2282976); conditions: HepG2 Attagene TRANS GAL4 internal marker reporter
How it was run: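 First, HepG2 cells were transfected with reporter units under GAL4-UAS control. Next, they were treated with chemical for 24 h. Finally, RNA was reverse-transcribed, PCR-amplified, FAM-labelled and resolved by capillary electrophoresis, with induction scored against DMSO.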

[4] = target: Oxysterols receptor LXR-alpha (Homo sapiens) (UniProt Q13133); assay: ATG_LXRa_TRANS: Attagene TRANS-FACTORIAL HepG2 Assay for human Liver X Receptor alpha (LXRa) (AID 2282980); conditions: HepG2 Attagene TRANS reporter, LXRa transactivation
How it was run: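 Transfect HepG2 with GAL4-UAS multiplex reporter constructs (TRANS format, chimeric receptor-GAL4); treat 24 h; extract RNA, reverse-transcribe, PCR-amplify, FAM-label, HpaI-digest; resolve fragments by capillary electrophoresis. Upward response vs DMSO.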

[5] = target: Oxysterols receptor LXR-beta (Homo sapiens) (UniProt P55055); assay: ATG_LXRb_TRANS: Attagene TRANS-FACTORIAL HepG2 Assay for human Liver X Receptor beta (LXRb) (AID 2282981); conditions: HepG2 Attagene TRANS GAL4-LXRb reporter, mRNA
How it was run: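 After 24 h chemical treatment of transfected HepG2 cells carrying exogenous NR-Gal4 chimeras, reporter mRNA was quantified by fluorescent RT-PCR and capillary electrophoresis; activity taken as increase over DMSO controls.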

[6] = ATG_M_32_TRANS: Attagene TRANS-FACTORIAL HepG2 Assay for M32 Transcription Factor (Internal Marker) (AID 2282984); conditions: HepG2 Attagene TRANS M32 internal marker reporter
How it was run: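 Internal background reporter in transfected HepG2: after 24 h chemical exposure, RNA reverse-transcribed, reporter cDNA amplified, fluorescently labelled and HpaI-cut, then sized by capillary electrophoresis. Gain of signal fitted against DMSO control.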

[7] = target: Nuclear receptor subfamily 4 group A member 2 (Homo sapiens) (UniProt P43354); assay: ATG_NURR1_TRANS: Attagene TRANS-FACTORIAL HepG2 Assay for human Nuclear Receptor Related Protein 1 (NURR1) (AID 2282985); conditions: HepG2 Attagene TRANS reporter, mRNA readout
How it was run: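 Reporter transcript induction, measured by RT-PCR with fluorescent labelling, HpaI digestion and capillary electrophoresis, after 24 hr dosing of human HepG2 cells transiently expressing an exogenous NR-Gal4 fusion with GAL4-UAS-driven reporters; DMSO as baseline.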

[8] = target: human Peroxisome Proliferator-activated Receptor alpha (PPARa), PPARA (gene 5465) (UniProt Q07869); assay: ATG_PPARa_TRANS: Attagene TRANS-FACTORIAL HepG2 Assay for human Peroxisome Proliferator-activated Receptor alpha (PPARa) (AID 2283001);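 further: potency for gain of reporter signal over DMSO so agonist or activator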
How it was run: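 Reporter transcripts quantified by RT-PCR plus capillary electrophoresis after 24 h treatment, fitted upward relative to DMSO. Cells: human HepG2 transiently carrying multiple GAL4-UAS reporter units driven by NR-Gal4 chimeras.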

[9] = target: human RAR-related Orphan Receptor beta (RORb), RORB (gene 6096) (UniProt Q92753); assay: ATG_RORb_TRANS: Attagene TRANS-FACTORIAL HepG2 Assay for human RAR-related Orphan Receptor beta (RORb) (AID 2283010)
How it was run: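 Read-out is reporter mRNA induction, quantified by RT-PCR with fluorescent capillary electrophoresis, 24 h post-dose in transiently transfected HepG2 expressing exogenous NR-Gal4 chimera. Activity fitted upward versus DMSO.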

[10] = target: human RAR-related Orphan Receptor gamma (RORg), RORC (gene 6097) (UniProt P51449); assay: ATG_RORg_TRANS: Attagene TRANS-FACTORIAL HepG2 Assay for human RAR-related Orphan Receptor gamma (RORg) (AID 2283011)
How it was run: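 First, HepG2 liver cells were transfected with GAL4-UAS-driven reporter constructs and the RORg-Gal4 fusion. Next, they were treated with chemical for 24 h. Finally, reporter mRNA was quantified by RT-PCR and capillary electrophoresis, with upward activity fitted against DMSO.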

[11] = target: human Retinoid X Receptor beta (RXRb), RXRB (gene 6257) (UniProt P28702); assay: ATG_RXRb_TRANS: Attagene TRANS-FACTORIAL HepG2 Assay for human Retinoid X Receptor beta (RXRb) (AID 2283013)
How it was run: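 Readout is reporter transcript induction after 24 h dosing. It is measured by RT-PCR of total RNA followed by fluorescent capillary electrophoresis. HepG2 liver cells carry transfected multiple reporter units driven by an exogenous RXRb-Gal4 fusion; activity is relative to DMSO.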

[12] = target: human AMP-activated Protein Kinase, alpha 1 (AMPKa1), PRKAA1 (gene 5562) (UniProt Q13131); assay: NVS_ENZ_hAMPKa1: NovaScreen (NVS) Enzymatic Assay for human AMP-activated Protein Kinase, alpha 1 (AMPKa1) (AID 2283130)
How it was run: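 Compounds were screened in duplicate at 25 uM, and those reaching ~30% inhibition were titrated up to 50 uM. The enzyme was recombinant human AMPKα1, and kinase turnover was read by fluorescence/mobility shift 1 h post-dosing as loss of signal versus DMSO.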

[13] = target: Protein deacetylase HDAC6 (Homo sapiens) (UniProt Q9UBN7); assay: NVS_ENZ_hHDAC6: NovaScreen (NVS) Enzymatic Assay for human Histone Deacetylase 6 (HDAC6) (AID 2283164)
How it was run: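 Concentration-response runs up to 50 uM followed a duplicate 25 uM single-point screen. Deacetylase activity of recombinant human HDAC6 read by fluorescence after 1 h, with mobility-shift separation of substrate and product; DMSO as baseline.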

[14] = target: human IkappaB Kinase alpha (IKKa), CHUK (gene 1147) (UniProt O15111); assay: NVS_ENZ_hIKKa: NovaScreen (NVS) Enzymatic Assay for human IkappaB Kinase alpha (IKKa) (AID 2283167)
How it was run: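 Compounds first run in duplicate at 25 uM, those meeting threshold (e.g. 30% inhibition) retested to maximum 50 uM. Enzyme activity of recombinant IKKa measured by fluorescence with electrophoretic mobility shift separation, 1 hour post-dosing, DMSO baseline.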

[15] = target: human MET Proto-Oncogene, Receptor Tyrosine Kinase (MET), MET (gene 4233) (UniProt P08581); assay: NVS_ENZ_hMet: NovaScreen (NVS) Enzymatic Assay for human MET Proto-Oncogene, Receptor Tyrosine Kinase (MET) (AID 2283180)
How it was run: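 Hits from a 25 uM duplicate screen were retested in concentration series up to 50 uM. Enzyme activity was measured by fluorescence after electrophoretic separation of product from substrate, 1 h after compound addition, relative to DMSO.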

[16] = target: human Sirtuin 1 (SIRT1), SIRT1 (gene 23411) (UniProt Q96EB6); assay: NVS_ENZ_hSIRT1: NovaScreen (NVS) Enzymatic Assay for human Sirtuin 1 (SIRT1) (AID 2283219)
How it was run: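 Cell-free recombinant SIRT1 with a fluorescent substrate; substrate and product separated by electrophoretic mobility shift and read by fluorescence intensity, 1 h after dosing. Primary screen at 25 uM in duplicate; hits re-run in concentration-response up to 50 uM, relative to DMSO.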

[17] = target: human Vascular Endothelial Growth Factor Receptor 2 (VEGFR2), KDR (gene 3791) (UniProt P35968); assay: NVS_ENZ_hVEGFR2: NovaScreen (NVS) Enzymatic Assay for human Vascular Endothelial Growth Factor Receptor 2 (VEGFR2) (AID 2283230)
How it was run: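 Cell-free recombinant VEGFR2 kinase, fluorescent substrate with electrophoretic mobility-shift separation; read 1 h after dosing. Screened at 25 uM in duplicate, hits to concentration-response up to 50 uM; loss-of-signal versus DMSO.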

[18] = target: human Thyroid Receptor Alpha (TRa), THRA (gene 7067) (UniProt P10827); assay: NVS_NR_hTRa_Antagonist: NovaScreen (NVS) Nuclear Receptor Binding Assay for human Thyroid Receptor Alpha Antagonism (TRa) (AID 2283362);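 further: activity is loss of signal relative to DMSO baseline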
How it was run: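 Extracted protein, cell-free; 1 h incubation after dosing; AlphaLISA chemiluminescence binding readout. DMSO = baseline/neg ctrl; signal loss = activity. Primary: duplicate, 25 uM; secondary: conc. series on actives.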

[19] = target: Retinoic acid receptor RXR-alpha (Homo sapiens) (UniProt P19793); assay: OT_NURR1_NURR1RXRa_0480: Odyssey Thera (OT) 8-hour HEK293T Protein Complementation Assay for Nurr1/retinoid X receptor (RXR) (AID 2283385)
How it was run: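 Interaction of Nurr1 with RXRα read as reconstituted reporter fluorescence in a HEK293T fragment-complementation system, 8 h post-treatment; increase over DMSO baseline analysed.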

[20] = target: Retinoic acid receptor RXR-alpha (Homo sapiens) (UniProt P19793); assay: OT_NURR1_NURR1RXRa_1440: Odyssey Thera (OT) 24-hour HEK293T Protein Complementation Assay for Nurr1/retinoid X receptor (RXR) (AID 2283386)
How it was run: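 Gain in fluorescence, fitted relative to DMSO, reflects Nurr1–RXRα association in HEK293T cells after 24 h dosing. Bait and prey are each linked to a reporter-protein fragment that reassembles on interaction.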

[21] = Tanguay_ZF_120hpf_AXIS_legacy: (Legacy) Oregon State University Tanguay Lab 120 Hour Post-fertilization zebrafish Assay for Body Axis Malformation (AID 2283635);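 further: potency for an increased fraction of larvae scored with body axis malformation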
How it was run: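 Chorion is removed with pronase at 4 hpf, then single 6 hpf embryos are dosed (final DMSO 0.64%) and held statically at 28C in sealed, foil-covered plates. At 120 hpf body axis malformation is recorded as present or absent.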

[22] = ACEA_AR_agonist_AUC_viability: ACEA Biosciences xCELLigence Real-Time Cell Analysis on Androgen Receptor Agonism for Viability (AID 2283775);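 further: viability read 80 hours after compound addition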
How it was run: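 22Rv1 cells; impedance growth kinetics; 8-pt 1:4 dilutions from 100 uM top final, ≤0.5% DMSO; n = 2; 80 h read; AUC viability, loss-of-signal vs DMSO.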

[23] = ACEA_ER_AUC_viability: ACEA Biosciences xCELLigence Real-Time Cell Analysis on Estrogen Receptor Agonism for Viability (AID 2283782);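 further: hit means loss of impedance signal meaning reduced cell growth or viability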
How it was run: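 Viability endpoint: reduced impedance area under the curve relative to DMSO, recorded by real-time electrode sensing over ~80 h of continuous exposure. Duplicate plates of T47D in hormone-depleted medium; eight concentrations, 1:4 dilutions, 100 uM maximum.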

[24] = CCTE_Harrill_HTTr_CellCount_MCF7: CCTE's Cell Proliferation Assessment for the High-Throughput Transcriptomics (HTTr) Platform, Harrill Lab (AID 2284012);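 further: cells exposed to compound for six hours; intended direction is loss of nuclei count meaning fewer cells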
How it was run: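 Cell count from high-content imaging of Hoechst-labeled nuclei serves as viability/growth readout. Chemicals were applied to MCF-7 cells in eight concentrations for six hours, with fitting in both directions relative to DMSO.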

Measured: AC50

Cc1ccc([N+](=O)[O-])cc1[N+](=O)[O-]
inconclusive: [1] 163 µM | [2] | [3] | [4] 1.08 µM | [5] 145 nM | [6] 830 nM | [7] 21.7 µM | [8] 176 µM | [9] | [10] | [11] 954 nM | [12] 25 µM | [13] 301 nM | [14] 46.5 µM | [15] | [16] 131 nM | [17] 6.92 µM | [18] 40.5 µM | [19] 12.3 µM | [20] | [21] 202 µM | [22] 9.92 µM | [23] 50 µM | [24]

CC(C)CCCCCCCOP(OCCCCCCCC(C)C)Oc1ccccc1
inconclusive: [7]

O=[N+]([O-])[O-].[NH4+]
inconclusive: [24]
